# Test results as given in the supplement of paper PMC7858590.
# “And” between values parts separate entries of the source, which are not always exact repeats. Equal values may be shown once. ± gives the standard deviation of the averaged measurements. In all, about 3,800 compounds were measured (“cell shape (eccentricity) Z-score vs DMSO control”: median about 1.1, lowest 2% from about -4.7 on). The list shows a part of the results.
# System: human monocyte-derived macrophages (M0)
# Experiment: cell shape (eccentricity) Z-score vs DMSO control; higher = more elongated, M2-like morphology
# Details: 20 µM; 24 h; macrophage state: M0 (M-CSF)
row,Structure (SMILES),cell shape (Z-score)
1,COC(=O)c1ccccc1O[C@@H]1O[C@H](CO[C@@H]2OC[C@@H](O)[C@H](O)[C@H]2O)[C@@H](O)[C@H](O)[C@H]1O,-0.546
2,COC(=O)C1(Cc2ccc(O)cc2)OC(=O)C(=O)C1c1ccc(O)cc1 (stereo unspecified),1.29 ± 0.39
3,O=S(=O)(c1ccccc1)N(CC(F)(F)F)c1ccc(C(O)(C(F)(F)F)C(F)(F)F)cc1,4.2
4,COc1ccc(S(=O)(=O)N2CCN(S(=O)(=O)c3ccc4c(c3)OCCO4)CC2)cc1,1.21
5,O=C(OCc1cccc(O)c1O[C@@H]1O[C@H](CO)[C@@H](O)[C@H](O)[C@H]1O)C1(O)C(=O)C2C3C4C5C(C(=O)C(O)(C(=O)OCc6cccc(O)c6O[C@@H]6O[C@H](CO)[C@@H](O)[C@H](O)[C@H]6O)C2C53)C41 (stereo partly specified),5.61
6,CC(=O)O[C@@H]1CC2C(C)(C)C(=O)CC[C@]2(C)C2CC[C@@]3(C)[C@H](c4ccoc4)OC(=O)C4OC43[C@@]21C (stereo partly specified),-5.48
7,OC1(c2ccc3c(c2)OCO3)OCC2C(c3ccc4c(c3)OCO4)OCC21O (stereo unspecified),1.82
8,Cc1c[nH]c(=O)n(CCCN2CCN(c3ccccc3OCC(F)(F)F)CC2)c1=O,0.795
9,CC/C(=C(\c1ccccc1)c1ccc(OCCN(C)C)cc1)c1ccccc1,-1.52 and -1.41 and -1.25
10,COc1c(-c2ccc(O)cc2)oc2cc(O)cc(O)c2c1=O,1.17
11,COc1cc(-c2oc3cc(O)cc(O)c3c(=O)c2OC2OC(CO)C(O)C(O)C2O)ccc1O (stereo unspecified),1.26
12,COc1ccc2c(c1)OCC(Cc1ccc(OC)c(OC(C)=O)c1)C2=O (stereo unspecified),-1.55
13,CCC(=O)OCN1C(=O)C=CC1=O,2.44
14,CC1OC(OC2C(OC(=O)C34CCC(C)(C)CC3C3=CCC5C6(C)CCC(OC7OC(CO)C(OC8OC(C(=O)O)C(OC9OCC(O)C(O)C9O)C(O)C8O)C(O)C7O)C(C)(CO)C6CCC5(C)C3(C)CC4)OC(COC3OCC(O)C(O)C3O)C(O)C2O)C(O)C(O)C1O (stereo unspecified),0.578
15,CSC(N)=C(C#N)C(C#N)=C(N)SC,0.948
16,Cn1cncc1[C@](N)(c1ccc(Cl)cc1)c1ccc2c(c1)c(-c1cccc(Cl)c1)cc(=O)n2C,3.63
17,CN1CCc2cccc3c2C1Cc1ccc(O)c(O)c1-3 (stereo unspecified),-1.88
18,C=C1C2(C)OC(=O)C34OC2C2=C(CO)C5(CCC2(C)C13C(=O)OC4C)C(O)CC(=O)OC5(C)C (stereo unspecified),-0.334
19,CCCC1=CC(=O)C(O)C1O (stereo unspecified),0.248
20,COC(=O)C1=CO[C@@H](OC2OC(O)C(O)C(O)C2CO)[C@H]2[C@@H]1C=CC21C=C([C@H](C)O)C(=O)O1 (stereo partly specified),1.86
21,CC1(CCO[C@H]2O[C@H](CO)[C@@H](O)[C@H](O)[C@H]2O)CCC2C(=CCC3[C@]2(C)CCC[C@@]3(C)C(=O)O)C1 (stereo partly specified),2.05 ± 2.1
22,CC1(C)CC[C@]2(C(=O)O[C@@H]3O[C@H](CO)[C@@H](O)[C@H](O)[C@H]3O)CC[C@]3(C)C(=CCC4[C@@]5(C)C[C@@H](O)[C@H](O)[C@@](C)(CO)C5[C@H](O)C[C@]43C)C2[C@@H]1O (stereo partly specified),3.49
23,O=c1[nH]c2cc([N+](=O)[O-])c([N+](=O)[O-])cc2[nH]c1=O,3.5
24,Cc1cc(C(=O)Nc2cccc3c2O[C@H](CN(C)C)[C@@H](C)CN([C@H](C)CO)C3=O)n(C)n1,-0.292
25,COc1ccc(CCCn2ncc3c2nc(N)n2nc(-c4ccco4)nc32)cc1,2.51
26,COC(=O)C(c1ccccc1Cl)N1CCc2sccc2C1 (stereo unspecified),3.31

# 2 of these compounds in another layout.
row	Structure (SMILES)	cell shape (Z-score)
25	COc1ccc(CCCn2ncc3c2nc(N)n2nc(-c4ccco4)nc32)cc1	2.51
26	COC(=O)C(c1ccccc1Cl)N1CCc2sccc2C1 (stereo unspecified)	3.31

# The listing continues:

row,Structure (SMILES),cell shape (Z-score)
1,Cn1c2ccccc2c2c3c(c4c5ccccc5n(CCC#N)c4c21)CNC3=O,13
2,CCC(=O)O[C@]1(C(=O)CCl)[C@@H](C)CC2C3CCC4=CC(=O)C=C[C@]4(C)[C@@]3(F)[C@@H](O)C[C@@]21C (stereo partly specified),2.69
3,O=C(O)c1cc(O)c2c(Cl)cc(Cl)cc2n1,2.08
4,CCOc1ccccc1OC(c1ccccc1)C1CNCCO1 (stereo unspecified),1.66
5,CC(C=CC1=C(C)CCCC1(C)C)=CC=CC(C)=CCO,5.37 and 5.62
6,COc1c(CO)c(O)cc2c1C(=O)CCC2O (stereo unspecified),3.82
7,N=C(N)Nc1ccc(Cl)cc1,0.554
8,NC(Cn1ccc(=O)n(Cc2ccccc2C(=O)O)c1=O)C(=O)O (stereo unspecified),2.3
9,COC(=O)c1ccc2c(c1)nc(NC(=O)c1ccccc1)n2CCCc1ccccc1,2.3
10,CN(C)CCCO[C@H]1[C@@H](C(O)CO)OC2OC(C)(C)O[C@@H]21 (stereo partly specified),3.13
11,CC(C)NCC(O)c1ccc2ccccc2c1 (stereo unspecified),0.398
12,COc1cc2c(Oc3ccc4[nH]c(C)cc4c3F)ncnc2cc1OCCCN1CCCC1,10
13,O=C(O)CCC(=O)Nc1ccc(S(=O)(=O)Nc2nccs2)cc1,1.06
14,C=C1CCC2C(C(=O)O)=COC(O[C@@H]3O[C@H](CO)[C@@H](O)[C@H](O)[C@H]3O)C12 (stereo partly specified),-2.64
15,CC(O)(C(=O)Nc1ccc(S(=O)(=O)c2ccccc2)cc1)C(F)(F)F (stereo unspecified),0.95
16,CC(=O)O[C@@H]1C[C@@]23C[C@@]24CC[C@H](O[C@@H]2OC[C@@H](O)[C@H](O)[C@H]2O)C(C)(C)[C@@H]4CC[C@H]3[C@]2(C)C[C@@H]3O[C@]4(C[C@@H](C)[C@@H]3[C@@]12C)O[C@H](O)[C@@]1(C)O[C@@H]41,0.788
17,C=C1C2=CC(=O)O[C@@H](c3ccoc3)[C@]2(C)CCC1[C@@]1(C)C=CC(=O)C(C)(C)[C@@H]1CC(=O)OC (stereo partly specified),-1.71
18,C[C@@H]1O[C@@H](O[C@H]2[C@H](O[C@H]3CC[C@@]4(C)C(CC[C@]5(C)C4CC=C4C6CC(C)(C)CC[C@]6(C(=O)O)CC[C@]45C)[C@]3(C)CO)OC[C@H](O)[C@@H]2O)[C@H](O)[C@H](O)[C@H]1O (stereo partly specified),0.241
19,COc1ccc(C[C@H](C)NC[C@@H](O)c2ccc(O)c(NC=O)c2)cc1.COc1ccc(C[C@H](C)NC[C@@H](O)c2ccc(O)c(NC=O)c2)cc1,2.91
20,C=C(C)[C@H]1COc2cc3oc(=O)ccc3cc2O1,2.13
21,CC1(CC(=O)O)CCC2(O1)C(CO)=CCC1C(C)(C)C(O)CCC12C (stereo unspecified),0.483
22,N#Cc1nc2c(nc1C#N)-c1ccc(Cl)cc1C2=O,2.23
23,CC(=O)Nc1ccc(S(=O)(=O)Nc2ccc([N+](=O)[O-])cc2)cc1,3.83
24,COc1ccccc1OCC(O)CN1CCN(CC(=O)Nc2c(C)cccc2C)CC1 (stereo unspecified),-2.69
25,COC(/C=C/C(OC(C)=O)C(C)OC(C)=O)C(O)C1CC=CC(=O)O1 (stereo unspecified),-2.32
